First the molecules themselves.
T1: Acid-sensing ion channel 1a (ASIC1a), endogenous in mouse brain (mouse (endogenous in brain)) (UniProt Q6NXK8)
T1 sequence: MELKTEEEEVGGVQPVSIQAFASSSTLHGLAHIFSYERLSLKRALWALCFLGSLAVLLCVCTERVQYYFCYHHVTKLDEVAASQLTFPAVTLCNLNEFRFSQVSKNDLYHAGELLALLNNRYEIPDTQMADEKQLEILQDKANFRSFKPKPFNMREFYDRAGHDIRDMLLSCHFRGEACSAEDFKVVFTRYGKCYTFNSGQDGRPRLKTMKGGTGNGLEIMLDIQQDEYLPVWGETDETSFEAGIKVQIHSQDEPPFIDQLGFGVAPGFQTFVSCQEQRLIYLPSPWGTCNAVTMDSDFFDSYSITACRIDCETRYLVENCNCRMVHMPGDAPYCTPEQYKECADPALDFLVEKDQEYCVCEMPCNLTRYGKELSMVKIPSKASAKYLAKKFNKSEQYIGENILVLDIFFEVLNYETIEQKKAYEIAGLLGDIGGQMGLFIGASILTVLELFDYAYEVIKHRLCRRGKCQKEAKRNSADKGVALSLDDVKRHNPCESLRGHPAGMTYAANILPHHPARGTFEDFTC

Amino acid sequences for entries named in this document (tags omitted).
UniProt Q925H0: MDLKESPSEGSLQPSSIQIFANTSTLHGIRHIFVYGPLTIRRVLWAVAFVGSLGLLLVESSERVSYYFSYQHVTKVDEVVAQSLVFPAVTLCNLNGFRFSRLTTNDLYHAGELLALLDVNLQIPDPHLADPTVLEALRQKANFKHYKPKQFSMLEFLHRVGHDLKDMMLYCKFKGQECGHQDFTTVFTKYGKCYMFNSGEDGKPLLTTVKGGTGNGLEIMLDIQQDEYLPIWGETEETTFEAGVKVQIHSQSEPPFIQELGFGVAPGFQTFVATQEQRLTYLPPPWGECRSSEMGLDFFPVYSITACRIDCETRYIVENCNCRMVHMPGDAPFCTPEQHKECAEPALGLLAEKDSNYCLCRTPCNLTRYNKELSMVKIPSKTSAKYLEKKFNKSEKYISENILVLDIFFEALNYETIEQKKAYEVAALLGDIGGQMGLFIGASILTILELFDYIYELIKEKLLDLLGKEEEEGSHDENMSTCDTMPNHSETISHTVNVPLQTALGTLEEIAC

B1: ASIC4, endogenous in mouse brain (protein, UniProt Q7TNS7 1-539)
chain: MPIEIVCKIKFAEEDAKPKEKEAGDEQSLLGAAQGPAAPRDLATFASTSTLHGLGRACGPGPHGLRRTLWALALLTSLAAFLYQAASLARGYLTRPHLVAMDPAAPAPVAGFPAVTLCNINRFRHSALSDADIFHLANLTGLPPKDRDGHRAAGLRYPEPDMVDILNRTGHQLADMLKSCNFSGHHCSASNFSVVYTRYGKCYTFNADPQSSLPSRAGGMGSGLEIMLDIQQEEYLPIWRETNETSFEAGIRVQIHSQEEPPYIHQLGFGVSPGFQTFVSCQEQRLTYLPQPWGNCRAESELREPELQGYSAYSVSACRLRCEKEAVLQRCHCRMVHMPGNETICPPNIYIECADHTLDSLGGGSEGPCFCPTPCNLTRYGKEISMVKIPNRGSARYLARKYNRNETYIRENFLVLDVFFEALTSEAMEQQAAYGLSALLGDLGGQMGLFIGASILTLLEILDYIYEVSWDRLKRVWRRPKTPLRTSTGGISTLGLQELKEQSPCPSRGRAEGGGASSLLPNHHHPHGPPGSLFEDFAC
B2: prenylcysteine oxidase 1 (PCYOX1), endogenous in mouse brain (protein, UniProt Q9CQF9 29-505)
chain: EPRAPPNRIAIVGAGIGGTSSAYYLRKKFGKDVKIDVFEREEVGGRLATLKVQGHDYEAGGSVIHPLNLHMKRFVKELGLSSVPASGGLVGVYNGKSLVFEESSWFVINVIKLVWRYGFQSLRMHMWVEDLLDKFMRIYRYQSHDYAFSSVEKLMHAIGGDDYVRLLNQTLRENLKKAGFSETFLNEMIAPVMKVNYGQSTDINAFVGAVSLTAADSNLWAVEGGNKIVCSGLLQASSSNLISGSVMSIEEKTRTKQTGNPTKMYEVVYKTGSETHSDFYDIVLVAAPLNRKMSNITFRNFDPPIEEFNDPYQQLVTTFIKGELNSTLFSSRPKDQFGLSAILVTDDSDMFINSLSIVASVRQKEGPPPAVDGMHVWKTFSRDILTKEQISKLFLSYDYAVRKPWLSYPHYEPPQKCPSIILHDRLYYLNGIEFAASCMEMSAIAGYNAALLAYHRWNGNEDMIDQDDLYERLKTEL
B3: prenylcysteine oxidase 1 like (PCYOX1L), endogenous in mouse brain (protein, UniProt Q8C7K6 23-495)
chain: DAPPGKIAVIGAGIGGSAVAHFLQQHFGPRVQIVVYEKGTVGGRLATISVNKQNYESGAASFHSLSLHMQDFVKLLGLRQRREVVGRSAIFGGEHFVLEETDWYLLNLFRLWWYYGISFLRLQMWVEEVMEKFMRIYKYQAHGYAFSGVEELLYSLGEATFVNMTQRSVAESLLQVGVTQRFIDDVVSAVLRASYGQSASMPAFAGAMSLAGAQGNLWSVEGGNKLVCSGLLKLAKATVIHATVTSVTLHSTEGKALYQVAYESDKGNSSDFYDIVVIATPLHLDNSSNNNITFEGFTPPIEDIQGSFQPTVVSLVHGYLNSSYFGFPDPKLFPFANILTTDFPSFFCTLDNICPVNISASFRRKQPQEAAVWRVQSPKPLFRTELKTLFRSYYSVQTAEWQAHPLYGSRRTLPRFALHDQLFYLNALEWAASSVEVTAVAAKNVALLAYNRWYQDLDKIDQKDLIHKVKTEL

No constants are given. Whether binding was seen depends on the method and setting. In cells and extracts the contact can be indirect. These calls come from enrichment with a bait or labelling near it, and not all partners need be listed. A no says only that the protein was not detected with the bait.

The assay has as its target T1, Acid-sensing ion channel 1a (ASIC1a), endogenous in mouse brain (mouse (endogenous in brain)). The assay is described as follows: affinity purification with mass spectrometry; two immobilised ASIC1-specific antibodies (OAAB05862 AvivaSysBio; AGP-053 Alomone) on CL-87 solubilized membrane fractions of whole brains of Asic1+/+ and Asic1-/- mice, 2 hours at 4°C; LC-MS/MS.
Turning to “ASIC2, endogenous in mouse brain (from UniProt Q925H0 1-512)”, the binding entry was “binds”.

With B1, the binding result is reported as “binds”.

Regarding B2, the binding result is “no binding”.

Turning to B3, the binding result is “binds”.
